Reference: the supplement of paper PMC10849652
The list shows a part of the results.

Chains of the proteins cited; added tags and fusions are not shown. Lines headed by an entry give the natural chain unless they say otherwise; changes in a name come on top.
UniProt Q9UPR3: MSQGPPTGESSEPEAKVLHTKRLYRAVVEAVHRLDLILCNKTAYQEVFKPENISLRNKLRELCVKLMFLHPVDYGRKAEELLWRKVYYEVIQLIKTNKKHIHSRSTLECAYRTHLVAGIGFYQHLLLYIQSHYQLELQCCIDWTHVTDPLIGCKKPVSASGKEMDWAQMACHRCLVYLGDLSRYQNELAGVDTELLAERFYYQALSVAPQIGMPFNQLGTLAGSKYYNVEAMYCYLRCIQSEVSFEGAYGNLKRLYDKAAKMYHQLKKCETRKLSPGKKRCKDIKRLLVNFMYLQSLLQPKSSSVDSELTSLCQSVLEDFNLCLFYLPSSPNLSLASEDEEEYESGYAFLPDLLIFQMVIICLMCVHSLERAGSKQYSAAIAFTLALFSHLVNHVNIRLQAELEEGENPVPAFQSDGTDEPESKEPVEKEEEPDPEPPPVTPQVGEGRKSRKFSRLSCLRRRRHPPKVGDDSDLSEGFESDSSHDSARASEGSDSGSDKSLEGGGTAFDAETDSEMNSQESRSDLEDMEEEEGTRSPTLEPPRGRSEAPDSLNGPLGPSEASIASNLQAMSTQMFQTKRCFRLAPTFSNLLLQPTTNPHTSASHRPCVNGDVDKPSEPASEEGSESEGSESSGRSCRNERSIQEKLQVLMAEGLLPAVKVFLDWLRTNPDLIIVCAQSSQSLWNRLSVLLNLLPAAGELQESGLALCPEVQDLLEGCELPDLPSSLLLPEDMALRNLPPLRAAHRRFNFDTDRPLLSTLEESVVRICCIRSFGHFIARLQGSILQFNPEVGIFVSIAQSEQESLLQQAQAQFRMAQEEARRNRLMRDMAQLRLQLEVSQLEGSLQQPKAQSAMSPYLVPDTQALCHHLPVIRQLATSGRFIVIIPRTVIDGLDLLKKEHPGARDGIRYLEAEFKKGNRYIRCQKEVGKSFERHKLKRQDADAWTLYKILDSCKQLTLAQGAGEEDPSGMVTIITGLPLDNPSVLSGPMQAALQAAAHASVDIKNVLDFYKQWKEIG
UniProt P02814: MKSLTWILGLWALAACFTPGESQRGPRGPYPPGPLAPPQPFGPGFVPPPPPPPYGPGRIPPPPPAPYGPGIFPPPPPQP
UniProt O60271: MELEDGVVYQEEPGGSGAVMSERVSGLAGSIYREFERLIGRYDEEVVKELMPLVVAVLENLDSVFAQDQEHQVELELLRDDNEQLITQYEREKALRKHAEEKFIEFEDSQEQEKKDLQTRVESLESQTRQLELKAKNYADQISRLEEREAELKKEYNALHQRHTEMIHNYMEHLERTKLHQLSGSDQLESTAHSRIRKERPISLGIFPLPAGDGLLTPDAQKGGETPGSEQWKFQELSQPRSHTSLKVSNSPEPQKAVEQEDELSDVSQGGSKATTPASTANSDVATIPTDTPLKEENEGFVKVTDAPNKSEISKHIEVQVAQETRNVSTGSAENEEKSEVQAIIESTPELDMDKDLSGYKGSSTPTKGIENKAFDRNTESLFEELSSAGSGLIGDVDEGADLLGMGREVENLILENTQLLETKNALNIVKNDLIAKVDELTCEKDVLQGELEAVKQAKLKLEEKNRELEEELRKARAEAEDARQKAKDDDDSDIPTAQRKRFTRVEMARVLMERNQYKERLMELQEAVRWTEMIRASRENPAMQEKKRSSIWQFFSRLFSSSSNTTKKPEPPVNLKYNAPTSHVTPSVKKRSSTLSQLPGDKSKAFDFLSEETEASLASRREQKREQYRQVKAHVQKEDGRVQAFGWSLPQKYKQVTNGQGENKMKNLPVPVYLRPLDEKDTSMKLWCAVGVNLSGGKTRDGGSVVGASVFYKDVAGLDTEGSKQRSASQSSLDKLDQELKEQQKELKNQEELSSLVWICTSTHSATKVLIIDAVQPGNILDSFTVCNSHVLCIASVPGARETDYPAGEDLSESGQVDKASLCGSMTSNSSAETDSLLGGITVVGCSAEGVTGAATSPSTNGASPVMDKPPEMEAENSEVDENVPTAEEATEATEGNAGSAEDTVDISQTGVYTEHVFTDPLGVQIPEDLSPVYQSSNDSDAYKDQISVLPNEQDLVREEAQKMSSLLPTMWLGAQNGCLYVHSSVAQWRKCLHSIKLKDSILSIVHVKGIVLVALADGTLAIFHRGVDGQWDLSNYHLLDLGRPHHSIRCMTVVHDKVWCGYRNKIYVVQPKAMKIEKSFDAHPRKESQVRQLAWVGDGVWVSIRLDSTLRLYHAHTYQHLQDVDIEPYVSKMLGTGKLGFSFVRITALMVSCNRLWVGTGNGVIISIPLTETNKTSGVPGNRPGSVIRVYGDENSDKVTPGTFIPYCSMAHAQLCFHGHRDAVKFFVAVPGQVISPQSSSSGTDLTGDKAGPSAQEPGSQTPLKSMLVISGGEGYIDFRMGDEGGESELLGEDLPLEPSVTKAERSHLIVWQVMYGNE
UniProt Q9Y2E8: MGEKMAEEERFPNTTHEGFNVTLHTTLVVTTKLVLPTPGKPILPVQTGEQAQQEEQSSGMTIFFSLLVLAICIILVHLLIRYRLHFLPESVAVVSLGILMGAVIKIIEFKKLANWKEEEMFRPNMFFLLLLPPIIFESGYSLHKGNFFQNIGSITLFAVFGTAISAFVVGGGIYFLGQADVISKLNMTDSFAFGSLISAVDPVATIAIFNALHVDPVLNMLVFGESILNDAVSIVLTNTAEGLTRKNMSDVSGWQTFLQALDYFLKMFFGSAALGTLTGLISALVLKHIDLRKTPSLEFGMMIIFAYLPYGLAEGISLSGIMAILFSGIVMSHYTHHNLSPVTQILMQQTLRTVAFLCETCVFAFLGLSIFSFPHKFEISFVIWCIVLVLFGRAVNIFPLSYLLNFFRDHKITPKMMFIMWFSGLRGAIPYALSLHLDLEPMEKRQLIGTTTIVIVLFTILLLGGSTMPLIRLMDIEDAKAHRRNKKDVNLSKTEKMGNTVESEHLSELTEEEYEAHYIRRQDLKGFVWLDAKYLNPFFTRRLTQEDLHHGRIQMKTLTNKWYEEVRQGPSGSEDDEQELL
UniProt Q9Y5W7: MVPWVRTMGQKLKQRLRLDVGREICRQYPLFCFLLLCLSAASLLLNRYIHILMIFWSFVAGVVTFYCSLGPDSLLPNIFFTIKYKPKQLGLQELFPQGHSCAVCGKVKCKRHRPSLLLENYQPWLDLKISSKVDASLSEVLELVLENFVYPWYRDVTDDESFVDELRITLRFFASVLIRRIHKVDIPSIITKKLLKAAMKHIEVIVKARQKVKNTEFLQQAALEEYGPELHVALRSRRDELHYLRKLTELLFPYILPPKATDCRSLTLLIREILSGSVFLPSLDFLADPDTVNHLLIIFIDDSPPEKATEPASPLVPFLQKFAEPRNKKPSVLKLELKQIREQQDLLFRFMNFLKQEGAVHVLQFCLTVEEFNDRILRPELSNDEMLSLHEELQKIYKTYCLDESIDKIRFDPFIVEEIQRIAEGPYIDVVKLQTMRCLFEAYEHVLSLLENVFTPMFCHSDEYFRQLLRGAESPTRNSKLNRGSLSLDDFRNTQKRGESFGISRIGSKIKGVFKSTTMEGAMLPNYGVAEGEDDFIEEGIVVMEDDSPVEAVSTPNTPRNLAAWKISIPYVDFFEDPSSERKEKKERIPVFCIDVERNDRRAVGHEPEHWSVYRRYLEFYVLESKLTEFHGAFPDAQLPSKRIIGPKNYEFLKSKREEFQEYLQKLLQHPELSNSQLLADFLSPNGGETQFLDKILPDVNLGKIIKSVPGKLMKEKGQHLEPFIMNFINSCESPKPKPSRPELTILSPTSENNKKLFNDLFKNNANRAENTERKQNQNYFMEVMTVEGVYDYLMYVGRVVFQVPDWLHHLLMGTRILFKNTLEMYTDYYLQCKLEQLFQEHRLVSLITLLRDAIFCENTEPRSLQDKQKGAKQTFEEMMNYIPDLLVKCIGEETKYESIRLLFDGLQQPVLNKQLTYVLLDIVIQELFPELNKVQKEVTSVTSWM
UniProt P0DJ93: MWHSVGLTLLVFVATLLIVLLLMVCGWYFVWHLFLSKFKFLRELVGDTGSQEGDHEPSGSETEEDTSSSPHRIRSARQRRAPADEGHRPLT
UniProt Q0VAQ4: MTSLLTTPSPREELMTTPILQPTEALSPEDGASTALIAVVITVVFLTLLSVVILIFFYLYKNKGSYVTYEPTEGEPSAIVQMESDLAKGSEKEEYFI
UniProt Q8WVI0: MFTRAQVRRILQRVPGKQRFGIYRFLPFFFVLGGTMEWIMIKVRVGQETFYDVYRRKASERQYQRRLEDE
UniProt P35711: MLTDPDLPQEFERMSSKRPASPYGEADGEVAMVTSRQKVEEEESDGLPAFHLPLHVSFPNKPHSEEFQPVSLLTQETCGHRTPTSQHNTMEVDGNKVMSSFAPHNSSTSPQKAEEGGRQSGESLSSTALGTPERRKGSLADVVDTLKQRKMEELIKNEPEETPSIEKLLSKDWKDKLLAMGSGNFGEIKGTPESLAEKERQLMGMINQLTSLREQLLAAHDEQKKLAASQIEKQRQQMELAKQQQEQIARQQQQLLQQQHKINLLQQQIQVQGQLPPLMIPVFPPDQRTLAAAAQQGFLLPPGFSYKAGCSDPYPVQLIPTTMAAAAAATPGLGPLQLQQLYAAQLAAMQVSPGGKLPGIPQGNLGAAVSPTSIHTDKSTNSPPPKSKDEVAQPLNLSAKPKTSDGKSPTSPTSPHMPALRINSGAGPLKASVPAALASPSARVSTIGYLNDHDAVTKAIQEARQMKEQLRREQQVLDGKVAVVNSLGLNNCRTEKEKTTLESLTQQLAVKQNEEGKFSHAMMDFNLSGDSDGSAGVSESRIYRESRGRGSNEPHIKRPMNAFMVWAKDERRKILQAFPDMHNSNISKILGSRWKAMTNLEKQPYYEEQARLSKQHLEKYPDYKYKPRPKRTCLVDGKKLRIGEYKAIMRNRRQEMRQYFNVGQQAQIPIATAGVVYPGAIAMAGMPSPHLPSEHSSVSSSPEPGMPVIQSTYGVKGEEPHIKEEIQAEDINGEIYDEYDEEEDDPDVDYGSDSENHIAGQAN
UniProt Q3SY56: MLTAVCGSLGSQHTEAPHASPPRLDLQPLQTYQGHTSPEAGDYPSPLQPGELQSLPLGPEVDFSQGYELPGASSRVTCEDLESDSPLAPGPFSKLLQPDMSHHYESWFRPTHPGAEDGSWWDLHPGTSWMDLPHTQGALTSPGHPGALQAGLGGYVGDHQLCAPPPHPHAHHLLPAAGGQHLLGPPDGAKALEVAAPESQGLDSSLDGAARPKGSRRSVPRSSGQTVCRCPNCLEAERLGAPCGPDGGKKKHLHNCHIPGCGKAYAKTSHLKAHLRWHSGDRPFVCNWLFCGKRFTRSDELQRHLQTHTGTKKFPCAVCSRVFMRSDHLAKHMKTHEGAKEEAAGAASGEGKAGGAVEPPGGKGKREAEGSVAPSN
UniProt P35712: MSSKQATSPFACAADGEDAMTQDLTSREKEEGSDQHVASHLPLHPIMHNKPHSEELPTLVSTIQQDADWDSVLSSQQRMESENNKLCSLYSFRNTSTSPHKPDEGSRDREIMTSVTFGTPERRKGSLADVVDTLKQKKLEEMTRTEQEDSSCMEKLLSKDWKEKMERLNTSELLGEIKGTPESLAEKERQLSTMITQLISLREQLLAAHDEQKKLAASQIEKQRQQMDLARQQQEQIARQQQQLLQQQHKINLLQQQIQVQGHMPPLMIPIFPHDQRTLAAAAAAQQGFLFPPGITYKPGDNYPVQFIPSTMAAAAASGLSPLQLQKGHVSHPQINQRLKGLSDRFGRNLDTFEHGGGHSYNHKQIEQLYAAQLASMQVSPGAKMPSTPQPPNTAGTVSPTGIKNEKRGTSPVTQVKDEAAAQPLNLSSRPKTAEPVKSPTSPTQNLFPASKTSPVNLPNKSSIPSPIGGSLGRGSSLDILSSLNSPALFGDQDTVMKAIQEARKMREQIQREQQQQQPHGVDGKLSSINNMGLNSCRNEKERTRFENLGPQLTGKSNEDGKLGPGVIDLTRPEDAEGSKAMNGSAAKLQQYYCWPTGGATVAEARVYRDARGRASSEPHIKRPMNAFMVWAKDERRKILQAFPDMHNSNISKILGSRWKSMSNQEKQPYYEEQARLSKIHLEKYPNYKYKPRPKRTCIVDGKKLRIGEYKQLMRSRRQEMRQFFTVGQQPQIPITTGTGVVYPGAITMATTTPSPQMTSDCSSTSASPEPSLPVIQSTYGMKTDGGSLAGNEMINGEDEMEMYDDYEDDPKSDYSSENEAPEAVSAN
UniProt P84022, whole entry, looked up: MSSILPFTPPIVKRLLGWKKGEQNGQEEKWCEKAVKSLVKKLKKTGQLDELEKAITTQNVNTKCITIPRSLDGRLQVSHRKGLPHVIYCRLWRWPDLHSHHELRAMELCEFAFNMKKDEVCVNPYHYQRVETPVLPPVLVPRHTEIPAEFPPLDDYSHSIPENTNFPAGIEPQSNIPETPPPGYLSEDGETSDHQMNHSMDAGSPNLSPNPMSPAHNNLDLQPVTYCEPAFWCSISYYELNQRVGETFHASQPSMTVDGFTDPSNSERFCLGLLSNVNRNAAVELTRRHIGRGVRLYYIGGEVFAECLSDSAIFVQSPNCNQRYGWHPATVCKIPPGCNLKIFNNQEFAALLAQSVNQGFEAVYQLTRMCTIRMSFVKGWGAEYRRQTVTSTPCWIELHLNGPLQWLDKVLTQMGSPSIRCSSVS

Compound: Cc1ncc(-c2ccnc(Nc3ccc(S(C)(=O)=O)cc3)n2)n1C(C)C
Test: log2 fold change, soluble protein after heating vs DMSO (PISA); higher = thermal stabilisation; K562 cells, 10 uM, 30 min; active = over 0.2 and 3.5 SD of the protein, either way, in both replicates (recomputed)
Outline: (§1)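 K562 cells at 2×10^6 cells/mL were treated with 10 μM compound for 30 min. Aliquots were heated for 3 min across 48°C-58°C, pooled, and extracted in PBS with 0.5% NP-40 at 4°C; soluble protein was the supernatant after 21,000xg for 90 min. Soluble protein was quantified by TMTpro 16plex LC-MS/MS with channel sums equalised, and reported as log2 fold change in thermal stability against DMSO controls, with values from duplicates.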

Target | log2 fold change
SMG5 (UniProt Q9UPR3) | inactive: -0.074
SMR3B (UniProt P02814) | inactive: 0.277
SPAG9 isoform 4 (UniProt O60271) | inactive: 0.022
SOS1 (UniProt Q07889) | inactive: -0.013
SNX25 (UniProt Q9H3E2) | inactive: 0.091
SLC9A8 isoform 2 (UniProt Q9Y2E8) | inactive: 0.045
SNX14 (UniProt Q9Y5W7) | inactive: -0.016
SMIM13 (UniProt P0DJ93) | inactive: -0.284
SMAGP (UniProt Q0VAQ4) | inactive: -0.07
SMIM11A (UniProt P58511) | inactive: 0.012
SMIM4 (UniProt Q8WVI0) | inactive: 0.028
SP4 (UniProt Q02446) | inactive: -0.123
SMUG1 (UniProt Q53HV7) | inactive: -0.359
SOX5 (UniProt P35711) | inactive: 0.211
SP6 (UniProt Q3SY56) | inactive: 0.009

Compound: Cn1cc(-c2ccc3c(c2)CCN3C(=O)Cc2cccc(C(F)(F)F)c2)c2c(N)ncnc21
Test: as above
Outline: as §1

Target | log2 fold change
SMG5 (UniProt Q9UPR3) | inactive: -0.127
SPAG9 isoform 4 (UniProt O60271) | inactive: -0.072
SOX6 (UniProt P35712) | inactive: 0.006
SMIM29 (UniProt Q86T20) | inactive: -0.133
SLC9A8 isoform 2 (UniProt Q9Y2E8) | inactive: -0.17
SNX2 isoform 2 (UniProt O60749) | inactive: 0.16
SOD3 (UniProt P08294) | inactive: -0.075
SMARCD2 (UniProt Q92925) | inactive: 0.05
SMAGP (UniProt Q0VAQ4) | inactive: -0.093
SNX27 (UniProt Q96L92) | inactive: -0.081
SMIM4 (UniProt Q8WVI0) | inactive: 0.024
SNX4 (UniProt O95219) | inactive: -0.115
SMARCB1 (UniProt Q12824) | inactive: -0.122
SOX5 (UniProt P35711) | inactive: 0.042
SMAD3 (UniProt P84022) | inactive: -0.121
SLC9A6 isoform 3 (UniProt Q92581) | inactive: 0.048
SP6 (UniProt Q3SY56) | inactive: 0.037

Compound: Cn1cc(-c2ccc3nnc(C(F)(F)c4ccc5ncccc5c4)n3n2)cn1
Test: as above
Outline: as §1

Target | log2 fold change
SNX13 (UniProt Q9Y5W8) | inactive: 0.065
SMG5 (UniProt Q9UPR3) | inactive: -0.068
SPAG9 isoform 4 (UniProt O60271) | inactive: 0.11
SOS1 (UniProt Q07889) | inactive: -0.076
SOX6 (UniProt P35712) | inactive: -0.15
SLPI (UniProt P03973) | inactive: 0.106
SNX14 (UniProt Q9Y5W7) | inactive: -0.002
SMIM13 (UniProt P0DJ93) | inactive: 0.12
SNX27 (UniProt Q96L92) | inactive: -0.081
SNRPN isoform 2 (UniProt P63162) | inactive: -0.345
SNX4 (UniProt O95219) | inactive: -0.145
SP4 (UniProt Q02446) | inactive: -0.216
SOX5 (UniProt P35711) | inactive: -0.039
SMARCAL1 (UniProt Q9NZC9) | inactive: 0.169
SMAD3 (UniProt P84022) | inactive: -0.095
SP6 (UniProt Q3SY56) | inactive: -0.043
SMPD1 (UniProt P17405) | inactive: -0.135
SMIM19 (UniProt Q96E16) | inactive: 0.137

Compound: Cn1cncc1[C@@](N)(c1ccc(Cl)cc1)c1ccc2c(c1)c(-c1cccc(Cl)c1)cc(=O)n2C [tipifarnib]
Test: as above
Outline: as §1

Target | log2 fold change
SNRK (UniProt Q9NRH2) | inactive: -0.079
SMG5 (UniProt Q9UPR3) | inactive: -0.026
SMTN isoform 6 (UniProt P53814) | inactive: 0.152
SOX6 (UniProt P35712) | inactive: 0.015
SNX25 (UniProt Q9H3E2) | inactive: 0.101
SLC9A8 isoform 2 (UniProt Q9Y2E8) | inactive: 0.016
SNX2 isoform 2 (UniProt O60749) | inactive: -0.155
SOD3 (UniProt P08294) | inactive: 0.043
SNAP23 isoform 2 (UniProt O00161) | inactive: 0.084
SNX14 (UniProt Q9Y5W7) | inactive: -0.034
SMIM13 (UniProt P0DJ93) | inactive: 0.234
SMARCD2 (UniProt Q92925) | inactive: 0.077
SMAGP (UniProt Q0VAQ4) | inactive: 0.215
SNRPN isoform 2 (UniProt P63162) | inactive: 0.279
SMIM4 (UniProt Q8WVI0) | inactive: 0.004
SLX4IP (UniProt Q5VYV7) | inactive: -0.194
SOX5 (UniProt P35711) | inactive: 0.027
SMAD3 (UniProt P84022) | inactive: 0.031
SLC9A6 isoform 3 (UniProt Q92581) | inactive: 0.028
SP6 (UniProt Q3SY56) | inactive: 0.058
SNX19 (UniProt Q92543) | inactive: -0.12
SMPD1 (UniProt P17405) | inactive: 0.003
SMIM19 (UniProt Q96E16) | inactive: -0.089
